# Assay results taken from the supplement of paper PMC10032668.
# The chains behind the UniProt entries cited, without tags or fusion partners.
# DDX54, Q8TDD1, UniProt Q8TDD1, whole entry: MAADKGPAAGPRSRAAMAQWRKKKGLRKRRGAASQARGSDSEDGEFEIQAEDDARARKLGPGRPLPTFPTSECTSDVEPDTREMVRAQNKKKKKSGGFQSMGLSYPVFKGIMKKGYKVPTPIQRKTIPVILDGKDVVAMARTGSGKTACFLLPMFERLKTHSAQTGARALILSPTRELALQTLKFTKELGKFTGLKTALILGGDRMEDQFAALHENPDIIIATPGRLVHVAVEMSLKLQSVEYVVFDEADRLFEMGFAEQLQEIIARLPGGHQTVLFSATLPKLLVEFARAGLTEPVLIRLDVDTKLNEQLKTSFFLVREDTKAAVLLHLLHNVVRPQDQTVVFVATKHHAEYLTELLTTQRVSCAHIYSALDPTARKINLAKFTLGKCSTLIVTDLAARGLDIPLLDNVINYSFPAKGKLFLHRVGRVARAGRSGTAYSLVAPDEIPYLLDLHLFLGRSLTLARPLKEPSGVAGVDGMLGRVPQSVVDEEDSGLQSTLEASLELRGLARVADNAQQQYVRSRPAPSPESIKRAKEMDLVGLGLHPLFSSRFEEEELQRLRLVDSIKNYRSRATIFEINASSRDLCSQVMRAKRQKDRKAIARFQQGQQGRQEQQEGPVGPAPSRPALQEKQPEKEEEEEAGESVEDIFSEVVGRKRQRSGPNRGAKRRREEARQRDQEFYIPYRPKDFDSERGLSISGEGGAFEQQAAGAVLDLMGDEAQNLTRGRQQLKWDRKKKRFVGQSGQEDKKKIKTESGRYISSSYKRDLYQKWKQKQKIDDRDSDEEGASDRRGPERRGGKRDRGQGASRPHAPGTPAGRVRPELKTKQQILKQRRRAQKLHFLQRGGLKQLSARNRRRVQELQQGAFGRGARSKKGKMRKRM
# The list shows a part of the results. The list holds hits alone, and they repeat only in part.
# Legend:
# Assay in all cases: PRISMA enrichment of interactor (LFQ) in peptide spot vs all other peptide spots (log2 fold change); higher = stronger / more specific binding of the interactor to the peptide
# [1] = molecular target: ACADSB, P45954
# Method: (§1)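 PRISMA: 15-aa overlapping tiles (offset 8 aa) of 60 microproteins, plus SOS1/GLUT1 control peptides, were spot-synthesized on cellulose membranes in triplicate. Membranes were incubated with benzonase-treated HEK293T lysate, and bound proteins were identified by LC-MS/MS with LFQ. Enrichment is the log2 fold change of each protein in one spot versus all other spots. Only interactors passing the significance cutoff are listed.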
# [2] = molecular target: CSNK1E, P49674
# Method: as §1
# [3] = molecular target: CSTF3, Q12996
# Method: as §1
# [4] = molecular target: DDX54, Q8TDD1
# Method: as §1
# [5] = molecular target: DPM1, O60762
# Method: as §1
# [6] = molecular target: GPS1, Q13098
# Method: as §1
# [7] = molecular target: GTF3C1, Q12789
# Method: as §1
# [8] = molecular target: PHF10, Q8WUB8
# Method: as §1
# [9] = molecular target: PINX1, Q96BK5
# Method: as §1
# [10] = molecular target: RRAS2, P62070
# Method: as §1
# [11] = molecular target: SPAST, Q9UBP0
# Method: as §1
# [12] = molecular target: TSR1, Q2NL82
# Method: as §1
binder,measurement,setting,value
WTPAARACGTRHPST [THAP7],PRISMA enrichment of interactor (log2),[1],5.39
same,PRISMA enrichment of interactor (log2),[2],5.1
same,PRISMA enrichment of interactor (log2),[3],6.13
same,PRISMA enrichment of interactor (log2),[4],6.07
same,PRISMA enrichment of interactor (log2),[5],7.28
same,PRISMA enrichment of interactor (log2),[6],4.26
same,PRISMA enrichment of interactor (log2),[7],4.69
same,PRISMA enrichment of interactor (log2),[8],4.02
same,PRISMA enrichment of interactor (log2),[9],5.34
same,PRISMA enrichment of interactor (log2),[10],4.13
same,PRISMA enrichment of interactor (log2),[11],4.42
same,PRISMA enrichment of interactor (log2),[12],5.14

# 2 neighbouring records already listed:
binder,measurement,setting,value
WTPAARACGTRHPST [THAP7],PRISMA enrichment of interactor (log2),[3],6.13
same,PRISMA enrichment of interactor (log2),[4],6.07
